Assay results published in the supplement of paper PMC3334620.
Whole data set: some 33,000 sequences, median “E-score (-0.5 to 0.5)” near -0.0059, cut for the highest 2% near 0.26. The list shows a part of the results.

What follows are sequences tested against T1, Cin5 (UniProt P40917) (assay: PBM E-score (8-mer binding enrichment) (E-score (-0.5 to 0.5)); higher = stronger / more preferred TF binding). Conditions: protein concentration: 100 nM; construct: GST-full length.
T1 sequence: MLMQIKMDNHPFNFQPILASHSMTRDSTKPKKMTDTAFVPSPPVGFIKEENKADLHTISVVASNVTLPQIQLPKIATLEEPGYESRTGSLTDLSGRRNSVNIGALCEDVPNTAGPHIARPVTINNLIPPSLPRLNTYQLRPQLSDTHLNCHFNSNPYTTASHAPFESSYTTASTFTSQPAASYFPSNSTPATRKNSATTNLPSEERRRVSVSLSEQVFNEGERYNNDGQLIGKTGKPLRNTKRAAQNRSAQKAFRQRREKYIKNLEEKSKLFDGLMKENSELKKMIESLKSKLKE
How it was run: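 Each ungapped eight-base word and its reverse complement, pooled, received an E-score from the Universal PBM Analysis Suite. Underlying scans, normalised with masliner, recorded fluorescent anti-GST bound to GST-tagged yeast transcription factors. These were applied at about 100-200 nM to universal all-10-mer Agilent arrays double-stranded by primer extension.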

Row | Sequence | PBM E-score
1 | AGGAGTTA | 0.0637
2 | CGGGAGAA | -0.0556
3 | CAAGAGGG | -0.182
4 | ATGGATGA | 0.172
5 | AGGGCTAT | -0.157
6 | ACCTAGTC | -0.113
7 | TCACATCA | 0.0712
8 | CCTCATGA | 0.00293
9 | GACCACCC | -0.159
10 | TACACGAA | 0.255
11 | ATCCGTTG | 0.163
12 | CCTATCCA | -0.159
13 | ACCTTGAA | -0.0159
14 | CCGGAGCC | -0.149
15 | GCCTGGCC | -0.259
16 | ATACGATA | 0.152
17 | GACTATGC | 0.0131
18 | AAGCCTTG | 0.062
19 | ACGTAAGT | 0.25
20 | AAATTACG | 0.171
21 | ACGAACTG | 0.00518
22 | AGGGATGC | -0.22
23 | ACTATGAC | 0.074
24 | ATTTGTCG | 0.186
25 | AATGTATC | 0.243

Row | Sequence | PBM E-score
26 | CGCATGAA | 0.116
27 | AGAAGAAC | 0.0478
28 | CACACACA | 0.0837
29 | AGGCACAT | 0.0447
30 | AAACATCC | 0.0384
31 | CTACACGA | 0.0325
32 | AACATGAG | -0.0568
33 | ATGGCAAA | 0.0101
34 | CTAACTAG | 0.0958
35 | CCTGCGAA | -0.104
36 | GCGTCGAA | 0.0713
37 | CAGCAGAA | -0.0607
38 | CCCATCCC | -0.0944
39 | TCCCGTCA | -0.00679
40 | CTCCACAG | -0.225
41 | CGCGATGA | 0.199
42 | AATCGAGG | 0.154
43 | AATGTCTG | -0.0309
44 | AAAACCGA | 0.154
45 | AGCAGGGA | -0.105
46 | ATTAATCA | 0.263
47 | CCTGAAGA | -0.0745
48 | GAACGACC | -0.243
49 | TCATGACA | 0.14
50 | ACAACCAG | -0.00422

Exported as tab-separated lines: part of the list above
Row	Sequence	PBM E-score
1	AGGAGTTA	0.0637
2	CGGGAGAA	-0.0556
6	ACCTAGTC	-0.113
21	ACGAACTG	0.00518
25	AATGTATC	0.243
45	AGCAGGGA	-0.105

Further results.

Row | Sequence | PBM E-score
51 | ATGTACCC | 0.0966
52 | AATAGAGT | -0.134
53 | CAAGTGAG | -0.036
54 | CAATGTAA | 0.236
55 | TAAAACGA | -0.0549
56 | ACATTCCA | 0.0993
57 | TGCTTCAA | -0.0201
58 | ACCTGCCA | -0.169
59 | GGCTGCAA | -0.0216
60 | ATCCCAGA | -0.229
61 | CCAAAACA | -0.0204
62 | TCTATGAA | -0.00883
63 | CCACAGAG | -0.0249
64 | CGCGAGAG | -0.016
65 | ACGGAAAA | 0.161
66 | AACCGGAC | -0.0222
67 | ATGGTCAC | 0.0622
68 | TGTGGTAA | 0.124
69 | AGTCACAT | -0.111
70 | TAATCGGA | 0.235
71 | ATCCTCGA | 0.199
72 | CTCACAAC | 0.132
73 | CGTTAAGA | -0.0769
74 | AGGCCGCC | -0.209
75 | ACCGGCCA | -0.281

A stretch of the results above, as a working copy:
Row | Sequence | PBM E-score
40 | CTCCACAG | -0.225
41 | CGCGATGA | 0.199
42 | AATCGAGG | 0.154

Following part.

Row | Sequence | PBM E-score
76 | GAGATCCC | -0.0263
77 | AATGGATC | -0.0157
78 | ACCTCAGA | -0.154
79 | GAGATAAA | 0.181
80 | ACCTCTCG | -0.116
81 | AGGCAGTG | 0.141
82 | ATGTAGCG | -0.00829
83 | ATAGAGGA | -0.201
84 | GAGGTCGA | -0.0416
85 | GTGGATAA | 0.14
86 | AAACAACG | 0.148
87 | AGGCCTTG | -0.231
88 | CGGTAGAG | -0.132
89 | CGGCCCGC | -0.0702
90 | AGGCTGGC | -0.274
91 | AGAAGCCT | 0.0218
92 | AAAATATC | 0.189
93 | AGAATAAC | 0.00937
94 | CGGTACAA | 0.0685
95 | AGTCCATG | 0.0417
96 | GCTGATCC | 0.0274
97 | ACCTGAAC | -0.121
98 | GCCGTCGA | -0.0378
99 | TCACCCAA | 0.168
100 | CAACCACC | -0.0537

Row | Sequence | PBM E-score
101 | GGCTCCCA | -0.288
102 | ATGGAGGG | -0.207
103 | ATTGCCGC | -0.152
104 | AAGATGGG | -0.0928
105 | CGTTCTAA | 0.00436
106 | GCAGCTAC | -0.0161
107 | AAGATTTA | 0.137
108 | CGCCTAAA | -0.0895
109 | AGGTCAGC | 0.0015
110 | CCCATGCG | -0.0851
111 | TATATCAA | 0.196
112 | AATACTTG | 0.103
113 | ATAGATCG | -0.0276
114 | CACGCAGC | -0.173
115 | AGTACGTC | 0.105
116 | CAAGTTAG | 0.0323
117 | CTCTAAAA | -0.125
118 | GAGTTTCA | -0.0974
119 | CCACGCGC | -0.224
120 | GCGTGTAC | -0.0736
121 | CCGTTGTA | 0.095
122 | GATTTCGC | 0.262
123 | AGTGACCC | -0.0299
124 | ATTGATCA | 0.0329
125 | AATATCGC | 0.17

Row | Sequence | PBM E-score
126 | CGCGATTA | 0.263
127 | CCCAAACA | 0.174
128 | CTTTTTCC | 0.0268
129 | CCGCCACA | -0.0735
130 | AGATATAT | 0.18
131 | CGCCAACC | -0.264
132 | GGTAGAAA | -0.111
133 | GCATCTCC | -0.0341
134 | AGCGAAAC | 0.146
135 | ACACTCTC | 0.117
136 | AGGGTATC | -0.0168
137 | AACACGTC | -0.111
138 | AACAACCT | 0.0198
139 | GGGACCAA | -0.018
140 | GCTCAGCC | -0.182
141 | AAGGATTC | -0.117
142 | CAAACTAA | 0.266
143 | AGTAGTAG | 0.0173
144 | CCTTACAA | -0.175
145 | AATATACT | 0.196
146 | ACTTGCCC | -0.0792
147 | CTCCGCCA | -0.171
148 | GAGGGGCC | -0.223
149 | CGATCCCG | -0.00408
150 | TATGGTGA | 0.0779

A few values from the results shown:
CGATCCCG – PBM E-score: -0.00408
AACAACCT – PBM E-score: 0.0198

The list continues.

Row | Sequence | PBM E-score
151 | AGCGTGGC | -0.0859
152 | CTGTCGGC | -0.153
153 | CCAGCTGC | -0.204
154 | GATTTGAC | -0.0405
155 | AATCTATG | 0.183
156 | ATAAGCTC | 0.201
157 | ACACGCTG | 0.0059
158 | CGAAACCC | 0.03
159 | CATAGTTA | 0.0725
160 | ACTTCGCT | -0.0395
161 | ATAGCCCA | 0.171
162 | CCCCGCGA | 0.05
163 | CCCTGACA | 0.0252
164 | CGGAGGTC | -0.0513
165 | CAATTTGA | 0.0572
166 | TACAACGA | 0.153
167 | GAGGACAA | -0.0719
168 | CAAGTGTA | 0.0979
169 | GCGCGCAA | 0.217
170 | CTACTATA | 0.139
171 | ACAAGGAA | 0.00248
172 | AAGTTGGT | 0.165
